Laboratory results from PubChem BioAssay AID493014 (National Center for Advancing Translational Sciences (NCATS), 2011).
Some of the results follow. Further columns of the screen follow, without active or inactive calls. Most of these compounds were active or inconclusive in the main read-out, so they are no random draw. The note in brackets gives the kind of curve behind each potency; many fits are weak.

Assay: qHTS Assay to Find Inhibitors of Chronic Active B-Cell Receptor Signaling
Details: ABC-DLBCL IkBa-CBG/CBR reporter, luminescence ratio (green luciferase fused to IkBa over red control in TMD8 lymphoma cells), 4 h
How it was run: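 Concentration-response series (up to 46 uM) were applied to TMD8 dual-reporter cells for 4 h at 37C with doxycycline. Green/red ratio, after filter-overlap correction, defined %Activity; red signal alone was normalised to basal cells and zero luminescence.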

[1] = measured here: CBR red luminescence, cell number
[2] = measured here: IkBa-CBG green luminescence

| Structure (SMILES) | AC50 [1] | AC50 [2] |
| --- | --- | --- |
| COc1ccc(CN(C)C(=O)c2ccc(NC(=O)CC3SC(N4CCCC4)=NC3=O)cc2)c(OC)c1 (stereo not given) | 3.26 µM [rising, full curve] |  |
| CN(C(=O)COC(=O)CNC(=O)C1CCCCC1)c1ccccc1 | 32.6 µM [rising, partial curve, poor fit] |  |
| Cc1cccc2sc(NS(=O)(=O)c3ccccc3)nc12 | 11.2 µM [rising, partial curve] |  |
| CCN(CC)CCNC(=O)c1sc2ncn(CC(=O)Nc3ccc(C)c(Cl)c3)c(=O)c2c1C | 25.1 µM [falling, single point] |  |
| COc1ccc(-c2csc(NC3OC(=O)c4ccccc43)n2)cc1 (stereo not given) | 10 µM [falling, partial curve, poor fit] |  |
| O=C(CN1N=C(c2ccccc2)CCC1=O)NCc1ccccc1 | 0.1 µM [rising, full curve, poor fit] |  |
| O=C(NCc1ccc2c(c1)CCN2C(=O)c1ccc(F)cc1)c1ccco1 | 8.91 µM [falling, full curve, poor fit] |  |
| O=[N+]([O-])c1cc(/C=N/OCc2c(Cl)cccc2Cl)ccc1N1CCOCC1 | 9.2 µM [rising, partial curve] |  |
| COc1cc(/C=C(\C#N)C(=O)Nc2ccc(SC(F)F)cc2)cc(OC)c1OC | 10.3 µM [falling, partial curve] |  |
| COc1ccc(CNCc2cc(C)c(OC)cc2C)c(OC)c1 | 35.5 µM [falling, single point] |  |
| Cc1ccc(C(=O)O/N=C(\N)c2ccccn2)c(C)c1 | 0.794 µM [falling, full curve] |  |
| O=C(Nc1ccc2oc(-c3ccc4ccccc4c3)nc2c1)c1ccc2c(c1)OCCO2 | 3.55 µM [rising, partial curve, poor fit] |  |
| CCCC(O)(CCC)C(=O)NN(C(=O)CCl)c1ccccc1 |  | 29.1 µM [rising, partial curve, poor fit] |
| O=C(Nc1ccc(Cl)c(Cl)c1)c1cccnc1 | 22.4 µM [rising, partial curve, poor fit] |  |
| NS(=O)(=O)c1ccc(CCNC(=O)Cc2ccc(S(=O)(=O)N3CCCC3)s2)cc1 | 6.31 µM [rising, partial curve, poor fit] |  |
| O=C(NC1=NCCS1)c1cc2ccccc2o1 | 14.1 µM [falling, partial curve] |  |
| COCCN(CCOC)C(=O)c1ccc(SCc2ccc(C)cc2)c([N+](=O)[O-])c1 | 15.8 µM [falling, partial curve] |  |
| COc1ccc(CNC(=O)C2CCN(S(=O)(=O)N3CCC(C)CC3)CC2)c(OC)c1 | 0.708 µM [rising, partial curve, poor fit] |  |
| Cc1ccc(CNC(=O)CCC(=O)c2cccs2)cc1 | 29.1 µM [rising, single point] |  |
| CC(Sc1nncn1C)C(=O)Nc1nnc(-c2ccccc2)s1 (stereo not given) | 29.1 µM [falling, single point] |  |
| CCCCN1C(=O)c2ccc(C(=O)NC3(C)CCS(=O)(=O)C3)cc2C1=O (stereo not given) | 2.91 µM [rising, partial curve, poor fit] |  |

2 consecutive compounds already listed:

| Structure (SMILES) | AC50 [1] | AC50 [2] |
| --- | --- | --- |
| CCCC(O)(CCC)C(=O)NN(C(=O)CCl)c1ccccc1 |  | 29.1 µM [rising, partial curve, poor fit] |
| O=C(Nc1ccc(Cl)c(Cl)c1)c1cccnc1 | 22.4 µM [rising, partial curve, poor fit] |  |

Additional entries.

| Structure (SMILES) | AC50 [1] | AC50 [2] |
| --- | --- | --- |
| CCNc1ccc(C(=O)OC(C(=O)NC(N)=O)C(C)C)cc1[N+](=O)[O-] (stereo not given) | 15.8 µM [rising, partial curve, poor fit] |  |
| O=C(Nc1ccccc1)c1ccc(Br)c(S(=O)(=O)Nc2ccccn2)c1 | 0.112 µM [falling, full curve, poor fit] |  |
| COc1ccc2cc(C(=O)N3CCc4ccccc43)[nH]c2c1 | 5.62 µM [falling, partial curve] |  |
| CCOc1ccc(NC(=O)CN(C)S(=O)(=O)c2ccc(-c3ccc(=O)[nH]n3)s2)cc1 | 6.31 µM [rising, full curve, poor fit] |  |
| O=C1C(c2ccncc2)=C(O)c2ccccc21 | 20.6 µM [falling, partial curve] |  |
| O=C(N/N=C/c1ccc(N2CCOCC2)cc1)c1ccc(NS(=O)(=O)c2cccs2)cc1 | 17.8 µM [falling, single point] |  |
| O=C(CN1C(=O)NC2(CCCC2)C1=O)OCc1ccc(F)cc1 | 5.17 µM [rising, full curve, poor fit] |  |
| Cc1ccc(C(=O)OCC(=O)Nc2cccc(Cl)c2C)c(O)c1 | 14.1 µM [falling, partial curve, poor fit] |  |
| COC(=O)COc1ccc(S(=O)(=O)NCc2ccncc2)cc1 | 6.51 µM [rising, single point] |  |
| CCCOC(=O)/C(C)=N\NC(=O)c1ccco1 | 29.1 µM [falling, single point] |  |
| O=[N+]([O-])c1ccc(O)c(NC(=S)Nc2ccccc2)c1 | 4.61 µM [rising, partial curve, poor fit] |  |
| Cc1csc(SCC(=O)NCc2cccc(Cl)c2)n1 | 35.5 µM [rising, single point] |  |
| COc1cccc(/C=C/C(=O)NNC(=O)c2ccncc2)c1 | 25.9 µM [falling, single point] |  |
| CCn1cc(C(=O)NCC(OC)OC)c(=O)c2cc(S(=O)(=O)N3CCC(C)CC3)ccc21 | 0.112 µM [rising, full curve, poor fit] |  |
| O=C(O)/C=C/c1cccc(NC(=O)c2ccccc2)c1 | 14.1 µM [falling, single point] |  |
| CCCN(CCC)C(=O)CC(c1ccccc1)c1cc(Br)ccc1O (stereo not given) | 14.6 µM [falling, partial curve, poor fit] |  |
| COc1ccc(Cc2nnc(NC(=O)CSc3ccccc3)s2)cc1OC | 1.03 µM [falling, partial curve, poor fit] |  |
| CC1(C(=O)O)CCC(C(=O)Nc2ccccc2O)C1(C)C (stereo not given) |  | 25.9 µM [rising, partial curve, poor fit] |
| O=C(CCN1C(=O)/C(=C/c2ccccc2Cl)SC1=S)NC1=NCCS1 | 7.08 µM [falling, partial curve] |  |
| CC1Cc2ccccc2N1C(=O)COC(=O)c1n[nH]c(=O)c2ccccc12 (stereo not given) | 2.59 µM [falling, partial curve, poor fit] |  |
| COc1ccc([N+](=O)[O-])c(S(=O)(=O)c2ccc(Cl)cc2)n1 | 11.2 µM [falling, partial curve] | 35.5 µM [rising, partial curve, poor fit] |

| Structure (SMILES) | AC50 [1] | AC50 [2] |
| --- | --- | --- |
| CCOC(=O)c1c(CC(C)C)csc1NC(=O)C(C)C | 5.62 µM [falling, single point] |  |
| Cc1ccc2c(c1)NC(=O)C(CC(=O)NCCCN1CCN(c3cc(C)ccc3C)CC1)O2 (stereo not given) | 6.51 µM [falling, single point] |  |
| COc1ccc2[nH]c3c(c2c1)CCN1C(=O)C(CC(=O)NCCCn2ccnc2)C[C@H](C(=O)N2CCCCC2)[C@@]31C (stereo not given in full) | 23.1 µM [rising, partial curve, poor fit] |  |
| COc1cc(CN2CCC(C(=O)N3CCC(C)CC3)CC2)cc(Br)c1O | 5.01 µM [rising, partial curve, poor fit] |  |
| CCn1ncc(N2CCOCC2)c(Cl)c1=O | 35.5 µM [rising, single point] |  |
| O=C(CC1SCCNC1=O)Nc1cccc(Cl)c1 (stereo not given) | 18.4 µM [falling, single point] |  |
| COc1cc(/C=N/NC(=O)/C(=C\c2ccc([N+](=O)[O-])cc2)NC(=O)c2ccccc2)cc(OC)c1O | 2.31 µM [rising, partial curve, poor fit] |  |
| COc1ccc(C2C(=O)c3ccccc3C2=O)cc1OC | 11.2 µM [rising, partial curve, poor fit] |  |
| COc1nc(N/N=C/c2ccc(-c3ccccc3[N+](=O)[O-])o2)nc(N2CCOCC2)n1 |  | 23.1 µM [falling, partial curve, poor fit] |
| COc1ccc2c(c1OC)C(=O)N(c1ccccn1)C2 | 10 µM [falling, partial curve, poor fit] |  |
| O=C(NC12CC3CC(CC(C3)C1)C2)c1cc([N+](=O)[O-])ccc1N1CCOCC1 | 0.708 µM [rising, full curve, poor fit] |  |
| COc1ccc(-c2ccc(C#N)c(SCC(=O)NCc3ccco3)n2)cc1OC | 0.562 µM [rising, full curve] |  |
| COc1ccccc1-c1cc(C(=O)NC(C)C)no1 | 2.24 µM [falling, full curve] |  |
| COc1ccc(CCC(C)N2CCC(CO)(Cc3ccccc3)CC2)cc1 (stereo not given) | 0.316 µM [rising, full curve, poor fit] |  |
| Cc1noc(C)c1C(=O)Nc1nc2ccc(Cl)cc2s1 | 7.94 µM [falling, partial curve] |  |
| CCC(C)NC(=O)/C=C1\Sc2ccccc2NC1=O (stereo not given) | 18.4 µM [falling, single point] |  |
| Cc1ccc(NS(=O)(=O)c2ccc(C3CCCCC3)cc2)cc1 | 20.6 µM [falling, single point] | 25.9 µM [rising, partial curve, poor fit] |
| CCn1cc(C(=O)OCc2ccccc2)c(=O)c2ccc(C)nc21 | 0.326 µM [falling, full curve, poor fit] |  |
| COCCCNC(=O)CC(NS(=O)(=O)c1ccc(OC)cc1)c1ccc(OC)cc1 (stereo not given) | 7.31 µM [rising, partial curve, poor fit] |  |
| Cc1sc2ncnc(Sc3nnc4sc5ccccc5n34)c2c1C | 0.731 µM [falling, partial curve, poor fit] |  |
| S=C(Nc1ccc2c(c1)OCO2)NC1CCN(Cc2ccccc2)CC1 | 18.4 µM [falling, single point] |  |
